# Measured values: the supplement of paper PMC8728848
# Some of the results follow.
# Assays:
# Assay in all cases: glycan array binding signal (z-score within array); higher = stronger binding
# Details in all cases: glycan notation: IUPAC condensed, linker removed
# [1] = molecular target: Neu5Ac(a2-6)GlcNAc(b1-4)GlcNAc(b1-4)GlcNAc
# How it was run: (§1)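 Negative Z-scores can be read as non-binding. The Z-score is calculated within each array and then averaged across arrays of one protein sequence at different concentrations or buffers and across linkers. Arrays, 3228 in all, were curated from the Consortium for Functional Glycomics database and kept only where the protein sequence was available.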
# Neu5Ac(a2-8)Neu5Ac = molecular target: Neu5Ac(a2-8)Neu5Ac
# How it was run: as §1
# [2] = molecular target: Neu5Ac(a2-8)Neu5Ac(a2-3)Gal(b1-3)GalNAc(b1-4)[Neu5Ac(a2-3)]Gal(b1-4)Glc
# How it was run: as §1
# [3] = molecular target: Neu5Ac(a2-8)Neu5Ac(a2-3)Gal(b1-3)GalNAc(b1-4)[Neu5Ac(a2-8)Neu5Ac(a2-3)]Gal(b1-4)Glc
# How it was run: as §1
# [4] = molecular target: Neu5Ac(a2-8)Neu5Ac(a2-3)Gal(b1-4)Glc
# How it was run: as §1
# [5] = molecular target: Neu5Ac(a2-8)Neu5Ac(a2-3)Gal(b1-4)GlcNAc
# How it was run: as §1
# [6] = molecular target: Neu5Ac(a2-8)Neu5Ac(a2-3)[Gal(b1-3)GalNAc(b1-4)]Gal(b1-4)Glc
# How it was run: as §1
# [7] = molecular target: Neu5Ac(a2-8)Neu5Ac(a2-3)[GalNAc(b1-4)]Gal(b1-4)Glc
# How it was run: as §1
# [8] = molecular target: Neu5Ac(a2-8)Neu5Ac(a2-8)Neu5Ac
# How it was run: as §1
# [9] = molecular target: Neu5Ac(a2-8)Neu5Ac(a2-8)Neu5Ac(a2-3)Gal(b1-4)Glc
# How it was run: as §1
# [10] = molecular target: Neu5Ac(a2-8)Neu5Ac(a2-8)Neu5Ac(a2-3)[Gal(b1-3)GalNAc(b1-4)]Gal(b1-4)Glc
# How it was run: as §1
# [11] = molecular target: Neu5Ac(a2-8)Neu5Ac(a2-8)Neu5Ac(a2-3)[GalNAc(b1-4)]Gal(b1-4)Glc
# How it was run: as §1
# [12] = molecular target: Neu5Ac(a2-8)Neu5Ac(a2-8)Neu5Ac(a2-8)Neu5Ac(a2-3)[GalNAc(b1-4)]Gal(b1-4)Glc
# How it was run: as §1
# [13] = molecular target: Neu5Ac(a2-8)Neu5Gc(a2-3)Gal(b1-4)GlcNAc
# How it was run: as §1
# [14] = molecular target: Neu5Ac(b2-6)Gal(b1-4)GlcNAc
# How it was run: as §1
# Neu5Ac(b2-6)GalNAc = molecular target: Neu5Ac(b2-6)GalNAc
# How it was run: as §1
# [15] = molecular target: Neu5Ac9Ac(a2-3)Gal(b1-3)GlcNAc
# How it was run: as §1
# [16] = molecular target: Neu5Ac9Ac(a2-3)Gal(b1-4)GlcNAc
# How it was run: as §1
# [17] = molecular target: Neu5Ac9Ac(a2-6)Gal(b1-4)GlcNAc
# How it was run: as §1
# [18] = molecular target: Neu5Gc(a2-3)Gal(b1-3)GlcNAc
# How it was run: as §1
# [19] = molecular target: Neu5Gc(a2-3)Gal(b1-3)[Fuc(a1-4)]GlcNAc
# How it was run: as §1
# Neu5Gc(a2-3)Gal(b1-4)Glc = molecular target: Neu5Gc(a2-3)Gal(b1-4)Glc
# How it was run: as §1
# [20] = molecular target: Neu5Gc(a2-3)Gal(b1-4)GlcNAc
# How it was run: as §1
# [21] = molecular target: Neu5Gc(a2-3)Gal(b1-4)GlcNAc(b1-3)Gal(b1-4)GlcNAc(b1-2)Man(a1-3)[Neu5Gc(a2-3)Gal(b1-4)GlcNAc(b1-3)Gal(b1-4)GlcNAc(b1-2)Man(a1-6)]Man(b1-4)GlcNAc(b1-4)GlcNAc
# How it was run: as §1
# [22] = molecular target: Neu5Gc(a2-3)Gal(b1-4)[Fuc(a1-3)]GlcNAc
# How it was run: as §1
# [23] = molecular target: Neu5Gc(a2-6)Gal(b1-4)GlcNAc
# How it was run: as §1
# Neu5Gc(a2-6)GalNAc = molecular target: Neu5Gc(a2-6)GalNAc
# How it was run: as §1
# [24] = molecular target: Neu5Gc(a2-8)Neu5Ac(a2-3)Gal(b1-4)GlcNAc
# How it was run: as §1
# [25] = molecular target: Neu5Gc(a2-8)Neu5Gc(a2-3)Gal(b1-4)GlcNAc
# How it was run: as §1
# [26] = molecular target: Neu5Gc(a2-8)Neu5Gc(a2-3)Gal(b1-4)GlcNAc(b1-3)Gal(b1-4)GlcNAc
# How it was run: as §1
# [27] = molecular target: Neu5Gc(a2-8)Neu5Gc(a2-6)Gal(b1-4)GlcNAc
# How it was run: as §1
# [28] = molecular target: Neu5Gc(b2-6)Gal(b1-4)GlcNAc
# How it was run: as §1
binder,measurement,setting,value
Gs78B-bfa-542-29-542 (Bacteroides fragilis) (protein) SEDINRNPLLPTKEDEKMDGVIYGAYLPNLEKSVIPIGTASESTEPVNRYQIGVNLAGDAWAGYMSPRDNKFNGSKNFTNYFMYENWVNYVYSFMVTDVYSPWMQIKRISQDEGTRNDEIYALAQIIKIAALHRTTDMFGPIPYSQVGKGSFKVAYDSQESVYRSFLKELEEAVQTLDDYSNKSKEVLPAFDIVYNGDVNKWMRFANSLMLRLAIRVRFADAGLAKEYAEKAVKHPAGLINSKELAAQMGKGAGLQMKNPLKVINEEYNDTRMGATIYSYLAGYNDARAAVYFVKNNGFKAVRCGIAKSGDAYNGFTRPNVHEDDPLYWMKASEVCFLKAEGALAGFDMGGSAGDFYNAGIRMSFSENGLDNSSAETYLKDSTRKPANYTDTSNGELSANAPSSITIRWENGATEEEKLERIITQKYLAIFPNGQEAWTEWRRTGYPRQIVVAENKTNSAVLIGNGYDLGGVRRLPYPRTEYEQNGENLHNAISQYLGGVDNAATKVWWDKKSK,glycan array binding signal (z-score),[1],-0.817
same,glycan array binding signal (z-score),Neu5Ac(a2-8)Neu5Ac,-0.763
same,glycan array binding signal (z-score),[2],-0.763
same,glycan array binding signal (z-score),[3],0.648
same,glycan array binding signal (z-score),[4],-0.855
same,glycan array binding signal (z-score),[5],-0.713
same,glycan array binding signal (z-score),[6],-0.064
same,glycan array binding signal (z-score),[7],-0.28
same,glycan array binding signal (z-score),[8],-0.755
same,glycan array binding signal (z-score),[9],-0.617
same,glycan array binding signal (z-score),[10],-0.843
same,glycan array binding signal (z-score),[11],-0.443
same,glycan array binding signal (z-score),[12],1.92
same,glycan array binding signal (z-score),[13],-0.853
same,glycan array binding signal (z-score),[14],-0.689
same,glycan array binding signal (z-score),Neu5Ac(b2-6)GalNAc,-0.685
same,glycan array binding signal (z-score),[15],-0.668
same,glycan array binding signal (z-score),[16],-0.798
same,glycan array binding signal (z-score),[17],-0.811
same,glycan array binding signal (z-score),[18],-0.849
same,glycan array binding signal (z-score),[19],-0.452
same,glycan array binding signal (z-score),Neu5Gc(a2-3)Gal(b1-4)Glc,-0.797
same,glycan array binding signal (z-score),[20],-0.836
same,glycan array binding signal (z-score),[21],-0.45
same,glycan array binding signal (z-score),[22],0.283
same,glycan array binding signal (z-score),[23],-0.619
same,glycan array binding signal (z-score),Neu5Gc(a2-6)GalNAc,0.266
same,glycan array binding signal (z-score),[24],-0.824
same,glycan array binding signal (z-score),[25],-0.835
same,glycan array binding signal (z-score),[26],-0.842
same,glycan array binding signal (z-score),[27],-0.438
same,glycan array binding signal (z-score),[28],0.491

# Quoted from the results shown for reference:
binder,measurement,setting,value
Gs78B-bfa-542-29-542 (Bacteroides fragilis) (protein) SEDINRNPLLPTKEDEKMDGVIYGAYLPNLEKSVIPIGTASESTEPVNRYQIGVNLAGDAWAGYMSPRDNKFNGSKNFTNYFMYENWVNYVYSFMVTDVYSPWMQIKRISQDEGTRNDEIYALAQIIKIAALHRTTDMFGPIPYSQVGKGSFKVAYDSQESVYRSFLKELEEAVQTLDDYSNKSKEVLPAFDIVYNGDVNKWMRFANSLMLRLAIRVRFADAGLAKEYAEKAVKHPAGLINSKELAAQMGKGAGLQMKNPLKVINEEYNDTRMGATIYSYLAGYNDARAAVYFVKNNGFKAVRCGIAKSGDAYNGFTRPNVHEDDPLYWMKASEVCFLKAEGALAGFDMGGSAGDFYNAGIRMSFSENGLDNSSAETYLKDSTRKPANYTDTSNGELSANAPSSITIRWENGATEEEKLERIITQKYLAIFPNGQEAWTEWRRTGYPRQIVVAENKTNSAVLIGNGYDLGGVRRLPYPRTEYEQNGENLHNAISQYLGGVDNAATKVWWDKKSK,glycan array binding signal (z-score),[20],-0.836
same,glycan array binding signal (z-score),[21],-0.45
